Results from article PMC5007379.
Results are given in words; binding and its absence hold for the method and conditions named. Binding seen in cells or lysates may run through a third protein. These calls come from enrichment with a bait or labelling near it, and not all partners need be listed. Values belong to the molecule of their own block, whether it stands above or below them.

Sequences of proteins named here, by UniProt entry; tags and fusion partners are left off.
UniProt Q5VTR2: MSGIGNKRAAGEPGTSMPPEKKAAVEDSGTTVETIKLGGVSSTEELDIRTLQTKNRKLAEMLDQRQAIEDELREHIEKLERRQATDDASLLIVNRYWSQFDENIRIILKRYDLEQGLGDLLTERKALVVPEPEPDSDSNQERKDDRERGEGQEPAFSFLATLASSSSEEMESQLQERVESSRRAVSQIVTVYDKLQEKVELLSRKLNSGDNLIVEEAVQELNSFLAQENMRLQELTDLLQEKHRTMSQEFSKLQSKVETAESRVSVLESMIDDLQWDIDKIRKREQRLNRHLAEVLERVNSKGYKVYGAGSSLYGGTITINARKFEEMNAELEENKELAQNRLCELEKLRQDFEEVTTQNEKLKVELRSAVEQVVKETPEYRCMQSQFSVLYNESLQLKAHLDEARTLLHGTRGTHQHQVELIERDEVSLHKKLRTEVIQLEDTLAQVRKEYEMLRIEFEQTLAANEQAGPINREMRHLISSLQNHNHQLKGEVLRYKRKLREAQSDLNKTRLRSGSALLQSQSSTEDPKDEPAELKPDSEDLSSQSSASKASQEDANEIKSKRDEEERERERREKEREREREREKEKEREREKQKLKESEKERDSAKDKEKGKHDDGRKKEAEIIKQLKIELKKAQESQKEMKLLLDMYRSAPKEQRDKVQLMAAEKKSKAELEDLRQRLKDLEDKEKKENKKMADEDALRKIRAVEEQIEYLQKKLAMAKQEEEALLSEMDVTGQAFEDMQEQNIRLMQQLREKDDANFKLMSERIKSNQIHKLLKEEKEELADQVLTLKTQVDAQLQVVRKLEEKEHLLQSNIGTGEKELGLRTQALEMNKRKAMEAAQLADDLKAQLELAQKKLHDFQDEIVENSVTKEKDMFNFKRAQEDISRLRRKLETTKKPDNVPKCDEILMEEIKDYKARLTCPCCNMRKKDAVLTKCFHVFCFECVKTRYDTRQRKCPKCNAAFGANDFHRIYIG
UniProt P52732: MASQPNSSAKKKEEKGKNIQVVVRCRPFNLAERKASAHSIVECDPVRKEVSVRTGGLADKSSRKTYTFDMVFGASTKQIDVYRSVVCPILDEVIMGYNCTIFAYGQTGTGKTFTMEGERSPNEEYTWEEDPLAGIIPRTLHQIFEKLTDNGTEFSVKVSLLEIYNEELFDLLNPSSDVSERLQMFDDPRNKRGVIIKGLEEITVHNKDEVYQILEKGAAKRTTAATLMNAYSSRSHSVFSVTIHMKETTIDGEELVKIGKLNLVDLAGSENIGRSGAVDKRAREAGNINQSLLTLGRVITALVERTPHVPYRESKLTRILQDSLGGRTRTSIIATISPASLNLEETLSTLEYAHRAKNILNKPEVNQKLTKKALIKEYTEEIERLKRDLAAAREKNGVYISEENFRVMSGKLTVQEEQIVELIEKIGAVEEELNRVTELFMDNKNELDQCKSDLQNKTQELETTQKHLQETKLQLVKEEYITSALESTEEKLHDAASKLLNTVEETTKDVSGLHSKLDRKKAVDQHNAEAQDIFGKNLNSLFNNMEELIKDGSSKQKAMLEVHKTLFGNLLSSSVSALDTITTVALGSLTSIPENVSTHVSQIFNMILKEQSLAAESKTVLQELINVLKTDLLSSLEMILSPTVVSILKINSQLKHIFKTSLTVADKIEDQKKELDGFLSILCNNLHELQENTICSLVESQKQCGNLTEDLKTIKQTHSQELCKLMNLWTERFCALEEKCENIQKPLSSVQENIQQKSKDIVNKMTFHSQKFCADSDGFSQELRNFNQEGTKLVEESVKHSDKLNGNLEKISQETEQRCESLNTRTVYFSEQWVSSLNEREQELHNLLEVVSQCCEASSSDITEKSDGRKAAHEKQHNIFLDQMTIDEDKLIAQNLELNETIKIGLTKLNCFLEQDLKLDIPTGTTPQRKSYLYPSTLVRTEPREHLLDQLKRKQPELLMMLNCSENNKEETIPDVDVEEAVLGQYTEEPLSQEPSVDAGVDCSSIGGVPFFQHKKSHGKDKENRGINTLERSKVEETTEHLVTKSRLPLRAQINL

Biological target: FLAG-RNF20 (UniProt Q5VTR2)
Assay: affinity purification with mass spectrometry; cellular extracts of HeLa cells stably expressing FLAG-RNF20 on anti-FLAG affinity columns, eluted with FLAG peptides; eluates resolved by SDS-PAGE, silver-stained, bands analysed by mass spectrometry

binding: binds
Molecule: Eg5 (endogenous) (from UniProt P52732 1-1056)

binding: binds
B1: WAC (endogenous) (protein, UniProt Q9BTA9 1-647)
chain: MVMYARKQQRLSDGCHDRRGDSQPYQALKYSSKSHPSSGDHRHEKMRDAGDPSPPNKMLRRSDSPENKYSDSTGHSKAKNVHTHRVRERDGGTSYSPQENSHNHSALHSSNSHSSNPSNNPSKTSDAPYDSADDWSEHISSSGKKYYYNCRTEVSQWEKPKEWLEREQRQKEANKMAVNSFPKDRDYRREVMQATATSGFASGMEDKHSSDASSLLPQNILSQTSRHNDRDYRLPRAETHSSSTPVQHPIKPVVHPTATPSTVPSSPFTLQSDHQPKKSFDANGASTLSKLPTPTSSVPAQKTERKESTSGDKPVSHSCTTPSTSSASGLNPTSAPPTSASAVPVSPVPQSPIPPLLQDPNLLRQLLPALQATLQLNNSNVDISKINEVLTAAVTQASLQSIIHKFLTAGPSAFNITSLISQAAQLSTQAQPSNQSPMSLTSDASSPRSYVSPRISTPQTNTVPIKPLISTPPVSSQPKVSTPVVKQGPVSQSATQQPVTADKQQGHEPVSPRSLQRSSSQRSPSPGPNHTSNSSNASNATVVPQNSSARSTCSLTPALAAHFSENLIKHVQGWPADHAEKQASRLREEAHNMGTIHMSEICTELKNLRSLVRVCEIQATLREQRILFLRQQIKELEKLKNQNSFMV
